Experimental data reported in PMC10637790.
No constants are given. Whether binding was seen depends on the method and setting. Binding seen in cells or lysates may run through a third protein. Some results given as binding are weak or reduced against the parent protein; the word gives no strength. Where a sequence is shown, tags or fusion partners need not be part of it.

T1: MAD1L1-GST (UniProt Q9Y6D9)
T1 sequence: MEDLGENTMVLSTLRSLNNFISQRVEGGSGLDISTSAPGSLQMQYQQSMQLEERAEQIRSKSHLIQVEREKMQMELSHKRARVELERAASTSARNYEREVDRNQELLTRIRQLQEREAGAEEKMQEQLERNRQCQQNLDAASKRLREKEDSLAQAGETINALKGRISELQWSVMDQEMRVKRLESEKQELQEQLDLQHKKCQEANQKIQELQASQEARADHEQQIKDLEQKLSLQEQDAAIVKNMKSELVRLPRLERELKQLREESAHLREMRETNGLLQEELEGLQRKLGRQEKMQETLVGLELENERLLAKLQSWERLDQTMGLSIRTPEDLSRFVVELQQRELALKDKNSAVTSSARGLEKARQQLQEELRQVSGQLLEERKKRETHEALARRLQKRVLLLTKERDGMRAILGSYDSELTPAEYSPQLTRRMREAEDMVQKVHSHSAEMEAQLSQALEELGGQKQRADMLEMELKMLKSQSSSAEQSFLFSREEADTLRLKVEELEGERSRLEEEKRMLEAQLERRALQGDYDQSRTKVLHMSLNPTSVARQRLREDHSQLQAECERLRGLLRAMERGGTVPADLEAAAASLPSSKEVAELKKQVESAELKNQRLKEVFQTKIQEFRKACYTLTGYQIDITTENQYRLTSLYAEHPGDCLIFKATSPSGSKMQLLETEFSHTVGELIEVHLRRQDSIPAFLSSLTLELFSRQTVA

T2: Flag-tagged chondroitin polymerizing factor (CHPF) expressed in glioma cells (UniProt Q8IZ52)
T2 sequence: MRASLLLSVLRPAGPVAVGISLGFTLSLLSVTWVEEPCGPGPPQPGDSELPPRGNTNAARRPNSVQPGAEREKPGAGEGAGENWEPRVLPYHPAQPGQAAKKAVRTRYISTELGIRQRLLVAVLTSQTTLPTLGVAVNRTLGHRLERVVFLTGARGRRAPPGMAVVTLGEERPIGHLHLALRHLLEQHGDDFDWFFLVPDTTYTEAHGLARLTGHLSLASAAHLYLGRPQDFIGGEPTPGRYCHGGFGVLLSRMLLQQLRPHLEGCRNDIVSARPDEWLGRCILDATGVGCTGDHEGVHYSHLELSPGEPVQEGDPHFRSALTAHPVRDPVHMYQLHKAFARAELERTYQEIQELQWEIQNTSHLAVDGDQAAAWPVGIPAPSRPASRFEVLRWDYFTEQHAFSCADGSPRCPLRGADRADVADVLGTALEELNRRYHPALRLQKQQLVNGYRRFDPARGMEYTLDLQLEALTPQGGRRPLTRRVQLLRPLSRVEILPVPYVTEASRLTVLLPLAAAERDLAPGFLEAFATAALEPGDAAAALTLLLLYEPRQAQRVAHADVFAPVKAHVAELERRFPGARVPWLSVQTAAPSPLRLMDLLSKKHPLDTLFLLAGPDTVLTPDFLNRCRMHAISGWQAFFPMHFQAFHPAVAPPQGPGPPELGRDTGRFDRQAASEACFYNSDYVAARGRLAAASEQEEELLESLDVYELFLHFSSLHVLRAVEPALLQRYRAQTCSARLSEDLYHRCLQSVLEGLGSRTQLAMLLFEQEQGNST


Columns and labels:
[1] = target: T1, MAD1L1-GST; assay: pull-down; MAD1L1-GST from E. coli immobilised on glutathione agarose as bait; Flag-CHPF extracted from HEK293T cells as prey; 4 C, 2 h; five PBS washes; Western blot; only the target purified
[2] = target: T2, Flag-tagged chondroitin polymerizing factor (CHPF) expressed in glioma cells; assay: co-IP; lysates of glioma cells (U251, U87) transfected with flag-CHPF; anti-flag-CHPF or anti-MAD1L1 antibodies on protein A/G beads, 4 C; Western blot

binding [1]	binding [2]	Binder
binds	–	Flag-CHPF fusion protein from HEK293T cells (protein, UniProt Q8IZ52 1-775) MRASLLLSVLRPAGPVAVGISLGFTLSLLSVTWVEEPCGPGPPQPGDSELPPRGNTNAARRPNSVQPGAEREKPGAGEGAGENWEPRVLPYHPAQPGQAAKKAVRTRYISTELGIRQRLLVAVLTSQTTLPTLGVAVNRTLGHRLERVVFLTGARGRRAPPGMAVVTLGEERPIGHLHLALRHLLEQHGDDFDWFFLVPDTTYTEAHGLARLTGHLSLASAAHLYLGRPQDFIGGEPTPGRYCHGGFGVLLSRMLLQQLRPHLEGCRNDIVSARPDEWLGRCILDATGVGCTGDHEGVHYSHLELSPGEPVQEGDPHFRSALTAHPVRDPVHMYQLHKAFARAELERTYQEIQELQWEIQNTSHLAVDGDQAAAWPVGIPAPSRPASRFEVLRWDYFTEQHAFSCADGSPRCPLRGADRADVADVLGTALEELNRRYHPALRLQKQQLVNGYRRFDPARGMEYTLDLQLEALTPQGGRRPLTRRVQLLRPLSRVEILPVPYVTEASRLTVLLPLAAAERDLAPGFLEAFATAALEPGDAAAALTLLLLYEPRQAQRVAHADVFAPVKAHVAELERRFPGARVPWLSVQTAAPSPLRLMDLLSKKHPLDTLFLLAGPDTVLTPDFLNRCRMHAISGWQAFFPMHFQAFHPAVAPPQGPGPPELGRDTGRFDRQAASEACFYNSDYVAARGRLAAASEQEEELLESLDVYELFLHFSSLHVLRAVEPALLQRYRAQTCSARLSEDLYHRCLQSVLEGLGSRTQLAMLLFEQEQGNST
–	binds	Mitotic arrest deficient 1-like 1 (MAD1L1), endogenous in glioma cells (protein, UniProt Q9Y6D9 1-718) MEDLGENTMVLSTLRSLNNFISQRVEGGSGLDISTSAPGSLQMQYQQSMQLEERAEQIRSKSHLIQVEREKMQMELSHKRARVELERAASTSARNYEREVDRNQELLTRIRQLQEREAGAEEKMQEQLERNRQCQQNLDAASKRLREKEDSLAQAGETINALKGRISELQWSVMDQEMRVKRLESEKQELQEQLDLQHKKCQEANQKIQELQASQEARADHEQQIKDLEQKLSLQEQDAAIVKNMKSELVRLPRLERELKQLREESAHLREMRETNGLLQEELEGLQRKLGRQEKMQETLVGLELENERLLAKLQSWERLDQTMGLSIRTPEDLSRFVVELQQRELALKDKNSAVTSSARGLEKARQQLQEELRQVSGQLLEERKKRETHEALARRLQKRVLLLTKERDGMRAILGSYDSELTPAEYSPQLTRRMREAEDMVQKVHSHSAEMEAQLSQALEELGGQKQRADMLEMELKMLKSQSSSAEQSFLFSREEADTLRLKVEELEGERSRLEEEKRMLEAQLERRALQGDYDQSRTKVLHMSLNPTSVARQRLREDHSQLQAECERLRGLLRAMERGGTVPADLEAAAASLPSSKEVAELKKQVESAELKNQRLKEVFQTKIQEFRKACYTLTGYQIDITTENQYRLTSLYAEHPGDCLIFKATSPSGSKMQLLETEFSHTVGELIEVHLRRQDSIPAFLSSLTLELFSRQTVA
